Experimental data taken from patent US4703107A, “Water-soluble acylated derivatives of peptides or amino acids, their preparation and their use” (priority 1983, dated 1987).
Part of at least one peptide drawing is inferred or uncertain, most often the ends. Where a SMILES comes first, the peptide text is derived from it. The star is where a group is joined. dGluconoyl = O=C([C@H](O)[C@@H](O)[C@H](O)[C@H](O)CO)*; NH(9-Et-carbazol-3-yl) = CCn1c2ccccc2c2cc(N*)ccc21

Tested on: elastase
Test: Elastase dosage, Michaelis constant (fluorimetry, Lineweaver-Burck)
Assay type: biochemical
Settings: elastase 10 ng/ml, 30 minutes at 37° C., peptide 4.3×10^-5 to 4.2×10^-4 M

In the case of CCn1c2ccccc2c2cc(NC(=O)[C@H](C)NC(=O)[C@@H]3CCCN3C(=O)[C@H](C)NC(=O)[C@H](C)NC(=O)[C@H](O)[C@@H](O)[C@H](O)[C@H](O)CO)ccc21 [PHA-L-Ala-L-Ala-L-Pro-L-Ala-AEC] (dGluconoyl-AAPA-{NH(9-Et-carbazol-3-yl)}), the Michaelis constant is reported as 0.3 mM.
